Experimental data as given in PubChem BioAssay AID1918947 (Molecular Pharmacology Branch, DTP, NCI, 2023).
Several values for one entry are separate records, joined by “and”; a condition that tells them apart may be missing. Equal entries are not always repeated. This continues a long series; more values of the same kind are listed elsewhere.

Test system: A498 complex spheroid viability
Experiment: Anticancer human tumor A498 cell line growth inhibition;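 note: spheroids exposed to agents for seven days before readout; 100% = DMSO vehicle-treated spheroids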
Conditions: hits give low values
Description: Multicellular complex tumor spheroid response to LSD1 Inhibitor Iadademstat in combination with a variety of drugs and investigational agents in selected tumor cell lines
The current study was undertaken to assess response to LSD1 inhibitors in combination with standard-of-care drugs and investigational agents in solid tumor complex spheroid models as well as in the K-562 leukemia. Complex spheroids include a stromal component modeled by human endothelial cells (HUVEC) and fibroblasts modeled by human mesenchymal stem cells (MSCs). The concentration ranges selected for each drug and investigational agent were based upon clinically achievable concentrations if the clinical Cmax of the agent was known.
Compounds. The drugs and investigational agents used in this study are listed on Table 1. All of the agents used, including staurosporine (NSC755774) and gemcitabine (NSC613327), were obtained from the Developmental Therapeutics Program, NCI. FDA-approved anticancer drugs are available from the NCI at http://dtp.nci.nih.gov/branches/dscb/oncology_drugset_explanation.html. Drugs and investigational agents were >95% pure by proton nuclear magnetic resonance (NMR) and liquid chromatography/mass spectrometry (LC/MS). Stock solutions were prepared at 400x in DMSO, stored at -70 degrees C, and diluted in fresh medium prior to their use. The final concentration of DMSO in cell culture wells never exceeded 0.25% (v/v). The FDA-approved anticancer drug set is available from the Developmental Therapeutics Program at https://dtp.cancer.gov/organization/dscb/obtaining/available_plates.htm. All drugs and investigational agents were tested over a range starting from a high concentration at or near the clinical Cmax and decreasing in half-log increments. If the clinical Cmax for an agent had not been determined, the highest concentration tested was 10 microM.
Cell Lines. […]

| Compound | viability, T/C (compound 0.1 µM) | viability, T/C (compound 0.316 µM) | viability, T/C (compound 10 µM) |
| --- | --- | --- | --- |
| NC1CC1c1ccc(-c2cccc(O)c2)cc1 (stereo not drawn) | 100% [middle of 25 runs] | – | – |
| NC1CCC(NC2CC2c2ccccc2)CC1 (stereo not drawn) | – | 94.4% [middle of 23 runs] | 57.4% and 72.1% |
